The text below walks through data of publication doi:10.1101/2023.07.22.550030.

The chains behind the UniProt entries cited, without tags or fusion partners.
UniProt P38432: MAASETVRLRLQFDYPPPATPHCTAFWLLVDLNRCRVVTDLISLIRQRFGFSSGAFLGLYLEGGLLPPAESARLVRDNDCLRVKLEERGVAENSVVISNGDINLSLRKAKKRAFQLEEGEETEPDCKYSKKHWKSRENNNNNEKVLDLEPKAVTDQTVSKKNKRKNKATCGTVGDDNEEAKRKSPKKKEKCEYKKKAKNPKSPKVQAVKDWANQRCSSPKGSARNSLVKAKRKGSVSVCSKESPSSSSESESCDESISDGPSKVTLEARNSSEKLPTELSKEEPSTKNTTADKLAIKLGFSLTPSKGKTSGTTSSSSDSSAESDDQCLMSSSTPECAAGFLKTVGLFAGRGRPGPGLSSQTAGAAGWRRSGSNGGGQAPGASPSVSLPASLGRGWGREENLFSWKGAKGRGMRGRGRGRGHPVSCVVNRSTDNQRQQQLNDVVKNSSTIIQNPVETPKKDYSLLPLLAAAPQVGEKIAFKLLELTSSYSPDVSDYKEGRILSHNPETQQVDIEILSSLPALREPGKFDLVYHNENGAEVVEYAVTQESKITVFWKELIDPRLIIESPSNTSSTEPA
UniProt Q9BUJ2: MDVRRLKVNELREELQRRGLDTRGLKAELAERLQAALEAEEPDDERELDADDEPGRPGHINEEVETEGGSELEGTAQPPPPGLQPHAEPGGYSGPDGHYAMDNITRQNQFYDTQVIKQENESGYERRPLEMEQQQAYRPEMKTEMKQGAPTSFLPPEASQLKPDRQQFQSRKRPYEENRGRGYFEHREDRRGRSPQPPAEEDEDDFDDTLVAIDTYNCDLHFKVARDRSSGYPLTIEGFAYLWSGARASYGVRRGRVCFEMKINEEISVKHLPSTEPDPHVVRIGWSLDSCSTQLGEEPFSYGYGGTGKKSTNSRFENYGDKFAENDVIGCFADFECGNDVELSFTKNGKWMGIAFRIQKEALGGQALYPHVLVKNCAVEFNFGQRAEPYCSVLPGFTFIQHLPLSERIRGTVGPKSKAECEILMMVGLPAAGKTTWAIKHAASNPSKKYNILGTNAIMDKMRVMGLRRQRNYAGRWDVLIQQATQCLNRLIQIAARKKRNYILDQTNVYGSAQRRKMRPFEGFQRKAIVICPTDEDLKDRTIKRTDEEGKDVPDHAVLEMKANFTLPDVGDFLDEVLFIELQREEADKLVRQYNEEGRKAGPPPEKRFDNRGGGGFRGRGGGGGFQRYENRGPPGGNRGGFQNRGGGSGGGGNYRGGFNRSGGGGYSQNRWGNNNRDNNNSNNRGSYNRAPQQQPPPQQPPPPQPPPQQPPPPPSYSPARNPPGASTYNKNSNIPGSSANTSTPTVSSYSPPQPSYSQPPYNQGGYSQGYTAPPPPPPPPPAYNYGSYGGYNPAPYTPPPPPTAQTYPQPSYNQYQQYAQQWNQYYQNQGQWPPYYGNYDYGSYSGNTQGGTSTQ

These are yes or no findings as the source states them, for the method shown. Binding seen in cells or lysates may run through a third protein. Some binding calls cover weakened binding; strength is not graded here.

For experiment [1], the target named is coilin (human (endogenous in HCT116-derived hnRNPUL1-AID cells)) (UniProt P38432). Briefly: co-IP.
Experiment [2] has as its target FLAG-tagged hnRNPUL1 WT (full length) (human) (UniProt Q9BUJ2). As to the kind of experiment: co-IP.

B1: SART3 (protein, UniProt Q15020 1-963)
chain: MATAAETSASEPEAESKAGPKADGEEDEVKAARTRRKVLSRAVAAATYKTMGPAWDQQEEGVSESDGDEYAMASSAESSPGEYEWEYDEEEEKNQLEIERLEEQLSINVYDYNCHVDLIRLLRLEGELTKVRMARQKMSEIFPLTEELWLEWLHDEISMAQDGLDREHVYDLFEKAVKDYICPNIWLEYGQYSVGGIGQKGGLEKVRSVFERALSSVGLHMTKGLALWEAYREFESAIVEAARLEKVHSLFRRQLAIPLYDMEATFAEYEEWSEDPIPESVIQNYNKALQQLEKYKPYEEALLQAEAPRLAEYQAYIDFEMKIGDPARIQLIFERALVENCLVPDLWIRYSQYLDRQLKVKDLVLSVHNRAIRNCPWTVALWSRYLLAMERHGVDHQVISVTFEKALNAGFIQATDYVEIWQAYLDYLRRRVDFKQDSSKELEELRAAFTRALEYLKQEVEERFNESGDPSCVIMQNWARIEARLCNNMQKARELWDSIMTRGNAKYANMWLEYYNLERAHGDTQHCRKALHRAVQCTSDYPEHVCEVLLTMERTEGSLEDWDIAVQKTETRLARVNEQRMKAAEKEAALVQQEEEKAEQRKRARAEKKALKKKKKIRGPEKRGADEDDEKEWGDDEEEQPSKRRRVENSIPAAGETQNVEVAAGPAGKCAAVDVEPPSKQKEKAASLKRDMPKVLHDSSKDSITVFVSNLPYSMQEPDTKLRPLFEACGEVVQIRPIFSNRGDFRGYCYVEFKEEKSALQALEMDRKSVEGRPMFVSPCVDKSKNPDFKVFRYSTSLEKHKLFISGLPFSCTKEELEEICKAHGTVKDLRLVTNRAGKPKGLAYVEYENESQASQAVMKMDGMTIKENIIKVAISNPPQRKVPEKPETRKAPGGPMLLPQTYGARGKGRTQLSLLPRALQRPSAAAPQAENGPAAAPAVAAPAATEAPKMSNADFAKLFLRK
Regarding B1, the binding entry in experiment [1] is on record as “binds”.

B2: RBM7 (protein, UniProt Q9Y580 1-266)
chain: MGAAAAEADRTLFVGNLETKVTEELLFELFHQAGPVIKVKIPKDKDGKPKQFAFVNFKHEVSVPYAMNLLNGIKLYGRPIKIQFRSGSSHAPQDVSLSYPQHHVGNSSPTSTSPSRYERTMDNMTSSAQIIQRSFSSPENFQRQAVMNSALRQMSYGGKFGSSPLDQSGFSPSVQSHSHSFNQSSSSQWRQGTPSSQRKVRMNSYPYLADRHYSREQRYTDHGSDHHYRGKRDDFFYEDRNHDDWSHDYDNRRDSSRDGKWRSSRH
Turning to B2, the binding entry in experiment [2] is recorded as “binds”.
